Drawing on article PMC10250209, “UV-DDB stimulates the activity of SMUG1 during base excision repair of 5-hydroxymethyl-2'-deoxyuridine moieties”, this text covers binding for three molecules.

Amino acid sequences for entries named in this document (tags omitted).
UniProt Q92466: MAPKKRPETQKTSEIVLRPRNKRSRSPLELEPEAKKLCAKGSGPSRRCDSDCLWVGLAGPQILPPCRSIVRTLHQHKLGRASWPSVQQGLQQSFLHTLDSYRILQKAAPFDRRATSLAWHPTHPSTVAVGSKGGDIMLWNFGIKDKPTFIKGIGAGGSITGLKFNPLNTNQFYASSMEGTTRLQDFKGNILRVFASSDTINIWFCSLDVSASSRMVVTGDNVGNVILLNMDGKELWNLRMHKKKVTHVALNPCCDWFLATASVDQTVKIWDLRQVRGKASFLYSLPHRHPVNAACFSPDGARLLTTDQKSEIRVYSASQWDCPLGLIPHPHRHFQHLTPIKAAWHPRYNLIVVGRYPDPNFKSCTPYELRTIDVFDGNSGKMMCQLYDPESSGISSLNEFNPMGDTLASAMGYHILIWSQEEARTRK
UniProt Q16531: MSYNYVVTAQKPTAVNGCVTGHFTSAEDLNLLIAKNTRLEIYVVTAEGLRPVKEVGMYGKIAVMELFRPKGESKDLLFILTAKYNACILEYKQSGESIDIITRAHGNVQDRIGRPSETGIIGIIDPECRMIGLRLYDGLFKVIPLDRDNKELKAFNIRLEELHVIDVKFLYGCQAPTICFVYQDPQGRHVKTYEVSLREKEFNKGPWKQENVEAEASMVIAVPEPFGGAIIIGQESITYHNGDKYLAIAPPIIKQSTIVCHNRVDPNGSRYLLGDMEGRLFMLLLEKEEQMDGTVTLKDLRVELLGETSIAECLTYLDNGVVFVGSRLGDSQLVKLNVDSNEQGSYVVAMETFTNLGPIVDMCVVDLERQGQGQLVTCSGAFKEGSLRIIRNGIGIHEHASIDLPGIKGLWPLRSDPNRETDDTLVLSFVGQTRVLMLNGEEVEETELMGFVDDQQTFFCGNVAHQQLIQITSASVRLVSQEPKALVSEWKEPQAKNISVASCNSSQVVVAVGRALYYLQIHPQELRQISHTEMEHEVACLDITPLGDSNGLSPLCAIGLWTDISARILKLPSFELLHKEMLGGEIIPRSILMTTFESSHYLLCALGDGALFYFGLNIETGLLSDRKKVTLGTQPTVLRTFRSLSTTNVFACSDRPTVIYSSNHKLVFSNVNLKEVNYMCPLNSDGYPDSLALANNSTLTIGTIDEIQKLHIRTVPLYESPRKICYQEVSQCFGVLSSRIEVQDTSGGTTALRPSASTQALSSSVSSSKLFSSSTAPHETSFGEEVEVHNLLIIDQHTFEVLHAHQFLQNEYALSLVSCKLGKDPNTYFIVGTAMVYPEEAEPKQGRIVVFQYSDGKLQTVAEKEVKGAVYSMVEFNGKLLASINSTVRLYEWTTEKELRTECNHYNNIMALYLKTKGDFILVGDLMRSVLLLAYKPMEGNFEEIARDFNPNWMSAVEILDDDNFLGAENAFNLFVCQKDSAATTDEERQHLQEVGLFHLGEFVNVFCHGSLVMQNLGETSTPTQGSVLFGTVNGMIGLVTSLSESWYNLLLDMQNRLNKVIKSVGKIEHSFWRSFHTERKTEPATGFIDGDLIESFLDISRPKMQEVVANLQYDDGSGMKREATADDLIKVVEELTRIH

Assay [1] concerns the target DDB2-Flag (UniProt Q92466). Description: tandem affinity co-purification (His-Trap Ni2+, anti-FLAG M2 gel) + SEC; DDB1-6xHis and DDB2-Flag co-expressed in Sf9 cells; Ni2+ column, then anti-FLAG gel, then HiLoad 16/60 Superdex 200 in 50 mM HEPES pH 7.5, 200 mM KCl, 1 mM EDTA, 2 mM DTT, 10% glycerol.
For assay [2], the target named is DDB2-mCherry (UniProt Q92466). Description: proximity ligation; U2OS cells transiently transfected with the tagged proteins; treated with 5.0 uM 5-hmdU for 15 min or 60 J/m2 UV-C; CSK extraction, fixed; primary antibodies to mCherry and GFP; PLA foci per nucleus.

No constants are given. Whether binding was seen depends on the method and setting. For part of these data: In cells and extracts the contact can be indirect. Some results given as binding are weak or reduced against the parent protein; the word gives no strength. For part of these data: Sequences can lack the tags named with a protein.

Turning to DDB1-6xHis (from UniProt Q16531 1-1140), the binding entry in assay [1] is reported as “binds”.
Regarding GFP-DDB1 (from UniProt Q16531 1-1140), the binding entry in assay [2] is listed as “binds”.

B1: SMUG1-GFP (enzyme, UniProt Q53HV7 1-270)
chain: MPQAFLLGSIHEPAGALMEPQPCPGSLAESFLEEELRLNAELSQLQFSEPVGIIYNPVEYAWEPHRNYVTRYCQGPKEVLFLGMNPGPFGMAQTGVPFGEVSMVRDWLGIVGPVLTPPQEHPKRPVLGLECPQSEVSGARFWGFFRNLCGQPEVFFHHCFVHNLCPLLFLAPSGRNLTPAELPAKQREQLLGICDAALCRQVQLLGVRLVVGVGRLAEQRARRALAGLMPEVQVEGLLHPSPRNPQANKGWEAVAKERLNELGLLPLLLK
For the molecule B1, the binding entry in assay [2] is given as “binds”.
